# Experimental data published in patent US8692014B2, “Acid addition salts of 5-aminolevulinic acid or its derivatives” (Photocure ASA, priority 2004, dated 2014).
# Some entries share one result that the patent states for a list of compounds.
# System: mouse skin
# Test: Skin fluorescence after topical application of cream formulations to nude mice (emission 550-750 nm)
# Assay type: in vivo, Female Balb/c athymic nude mice
# Conditions: topical cream 0.5 mmol/10 g, excitation 407 nm, FIG. 2
# Method: Different salts of 5-amino-4-oxopentanoic acid or of its esters were formulated in Unguentum Merck for dermal studies. All cream formulations contained 0.5 mmol of substance per 10 g cream to ensure the same molar concentration (assuming that 10 g cream equals 10 ml, the approx. molar concentration is 0.5 mmol/10 ml or 50 mM). Preparation of the formulations is outlined in Table 1 below.
# Method: Female Balb/c athymic nude mice, weighing about 22 g, obtained from the Department of Laboratory Animals, The Norwegian Radium Hospital, Oslo, Norway, were used in the study. Each group consisted of three mice.
# Each mouse received 0.05-0.1 g of formulation (see Example 31) topically applied at the right flank of the body, evenly distributed and covered with a dressing (Opsite Flexigrid; Smith and Nephew Medical Ltd., Hull, England).
# The fiber point measuring device used consisted of a bundle of optical fibers connected to a spectrofluorimeter which produced the excitation light of 407 nm. […] The resulting emission fluorescence spectrum (550-750) nm was collected and led through the remaining fibers into a photomultiplier for quantification. The fluorescence spectrum from the skin was measured at 0, 2, 4, 6, 8, 10, 12 and 24 hours after administration and plotted against time.
structure (smiles),measurement,value
CS(=O)(=O)O.NCC(=O)CCC(=O)OCc1ccccc1 [Benzyl 5-amino-4-oxopentanoate methanesulfonate],higher maximal fluorescence than the hydrochloride salt,25-30%
